For test [1], the target named is Caf20-FLAG deleted for region C with the m^2 mutations (Y4A, L9A) (S. cerevisiae) (UniProt P12962). Kind of test: co-IP; Caf20-FLAG held on anti-Flag M2 magnetic beads from yeast total cell extract; IP lysis buffer 30 mM HEPES-KOH pH 7.5, 10% glycerol, 1 mM TCEP with 100 mM KCl (low salt); 1-2 h at 4 °C; eluted with 3X Flag peptide; western blot for native eIF4E. Background: A western blot detects proteins with antibodies after separation by electrophoresis.

Amino acid sequences for entries named in this document (tags omitted). A change or cut given only in a name is not applied to a line headed by its entry.
UniProt P12962: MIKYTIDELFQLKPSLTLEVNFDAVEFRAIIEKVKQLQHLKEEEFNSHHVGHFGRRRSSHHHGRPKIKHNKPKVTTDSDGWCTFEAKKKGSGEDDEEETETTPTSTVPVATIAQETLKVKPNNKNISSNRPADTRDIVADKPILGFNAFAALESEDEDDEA
UniProt P07260: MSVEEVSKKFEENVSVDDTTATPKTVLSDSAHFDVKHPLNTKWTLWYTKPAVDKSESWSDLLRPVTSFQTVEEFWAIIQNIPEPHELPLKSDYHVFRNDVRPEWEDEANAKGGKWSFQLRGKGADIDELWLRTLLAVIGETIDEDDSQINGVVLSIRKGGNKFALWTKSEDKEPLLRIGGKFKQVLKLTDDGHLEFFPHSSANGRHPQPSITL

Test [2] concerns the target Caf20^∆4-FLAG (S. cerevisiae) (UniProt P12962). The description is as above.
Test [3] deals with Caf20^∆8-FLAG (S. cerevisiae) (UniProt P12962). Described as above.
Test [4] has as its target Caf20^∆5-FLAG (S. cerevisiae) (UniProt P12962). Described as above.
For test [5], the target named is Caf20-FLAG deleted for region B with the m^2 mutations (Y4A, L9A) (S. cerevisiae) (UniProt P12962). The test is described as above.
Test [6] has as its target Caf20^∆2-FLAG (S. cerevisiae) (UniProt P12962). The test is described as above.
Test [7] has as its target Caf20^∆1-FLAG (S. cerevisiae) (UniProt P12962). The test is described as above.
The target in test [8] is Caf20^∆6-FLAG (S. cerevisiae) (UniProt P12962). Described as above.
Test [9] deals with Caf20^∆3-FLAG (S. cerevisiae) (UniProt P12962). The test is described as above.
The target of test [10] is Caf20^∆C-FLAG (S. cerevisiae) (UniProt P12962). Described as above.
The target of test [11] is Caf20^∆B-FLAG (S. cerevisiae) (UniProt P12962). The test is described as above.
In test [12] the target is Caf20^∆7-FLAG (S. cerevisiae) (UniProt P12962). The description is as above.
Test [13] has as its target Caf20-FLAG deleted for region C with the m^2 mutations (Y4A, L9A) (S. cerevisiae) (UniProt P12962). As to the kind of experiment: co-IP; as the low-salt Flag IP, but with high salt buffer (1 M KCl); Caf20-FLAG held on anti-Flag M2 magnetic beads from yeast total cell extract; eluted with 3X Flag peptide; western blot for native eIF4E.
The target of test [14] is Caf20^∆4-FLAG (S. cerevisiae) (UniProt P12962). The test is described as above.
Test [15] has as its target Caf20^∆8-FLAG (S. cerevisiae) (UniProt P12962). Described as above.
The target in test [16] is Caf20^∆5-FLAG (S. cerevisiae) (UniProt P12962). Described as above.
The target in test [17] is Caf20-FLAG deleted for region B with the m^2 mutations (Y4A, L9A) (S. cerevisiae) (UniProt P12962). The description is as above.
Test [18] concerns the target Caf20^∆2-FLAG (S. cerevisiae) (UniProt P12962). The test is described as above.
Test [19] concerns the target Caf20^∆1-FLAG (S. cerevisiae) (UniProt P12962). Described as above.
For test [20], the target named is Caf20^∆6-FLAG (S. cerevisiae) (UniProt P12962). Described as above.
In test [21] the target is Caf20^∆3-FLAG (S. cerevisiae) (UniProt P12962). The test is described as above.
Test [22] deals with Caf20^∆C-FLAG (S. cerevisiae) (UniProt P12962). The test is described as above.
Test [23] concerns the target Caf20^∆B-FLAG (S. cerevisiae) (UniProt P12962). The description is as above.
Test [24] concerns the target Caf20^∆7-FLAG (S. cerevisiae) (UniProt P12962). Described as above.

These are yes or no findings as the source states them, for the method shown. In cells and extracts the contact can be indirect. For part of these data: A result given as binding can be weak or reduced; the word gives no strength.

In the case of “eIF4E (native, yeast) (from UniProt P07260 1-213)”, the binding entry in [1] is recorded as “no binding”; in [2] it was “binds”; in [3], “binds”; in test [4], “binds”; in [5], “no binding”; in test [6], “binds”. Besides, the binding result in test [7] was “no binding”; in test [8] it was “binds”; in test [9] it was “binds”; in test [10] it was “binds”; in [11], “binds”; in test [12] it was “binds”. The binding entry is given as “no binding” in test [13]; “binds” in test [14]; “binds” in test [15]; “binds” in test [16]; “no binding” in test [17]; “binds” in test [18]. The binding result in test [19] is “no binding”; in [20] it was “binds”; in test [21], “binds”; in [22] it was “binds”; in test [23] it was “binds”; in test [24] it was “binds”.

The values are drawn from article PMC8242001.
